Assay results from US20090142281A1, “Composition Comprising A Coupled Enzyme System” (priority 2005, published 2009).
At least one compound was matched to its structure with a doubt left.

By UniProt entry, the sequences of proteins in these tests, tags left out. Chains listed by the source or under a name are the forms on record and can include a tag or linker.
UniProt Q9ZBU1, other isoform, or with tags, fused parts or gaps: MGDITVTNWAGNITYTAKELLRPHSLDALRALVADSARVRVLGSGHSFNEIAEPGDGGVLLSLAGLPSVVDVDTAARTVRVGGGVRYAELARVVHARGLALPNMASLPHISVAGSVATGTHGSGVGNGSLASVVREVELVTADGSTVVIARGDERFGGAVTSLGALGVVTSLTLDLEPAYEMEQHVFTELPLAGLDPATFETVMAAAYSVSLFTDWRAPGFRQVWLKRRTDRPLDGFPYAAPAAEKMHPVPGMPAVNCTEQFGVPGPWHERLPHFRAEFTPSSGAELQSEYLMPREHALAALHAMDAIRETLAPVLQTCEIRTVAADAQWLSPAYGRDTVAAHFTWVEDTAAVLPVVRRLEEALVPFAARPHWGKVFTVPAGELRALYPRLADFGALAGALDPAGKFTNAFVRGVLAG

Molecular target: T1, Sorbitol oxidase (Streptomyces coelicolor, UniProt Q9ZBU1)
T1 construct: made in house; host or cells: Streptomyces lividans g3s3 (vector pKB105, PSMM-SOX)
Assay type: biochemical
Conditions: substrate 55 mM in 100 mM phosphate buffer pH 7.0 at 25° C.; relative to sorbitol
Experimental: Sorbitol oxidase obtained using the methods described in Example 3-4, was tested for finding its activity with various polyol substrates. All substrates used in the assay were 55 mM in 100 mM phosphate buffer pH 7.0 at 25° C. The relative activity using sorbitol as (++++++=100%) is shown below in Table 1. In addition to these substrates, it is contemplated that other substrates, including, but not limited to glycerol, will find use in the present invention.

For `OCCCO` [1,3-propanediol], the “Relative Activity (+, 0)” value was “+/2”.
With `CC(O)CO` (centres unmarked) [1,2-propanediol] the “Relative Activity (+, 0)” value was “+/2”.
